Measurements reported in PubChem BioAssay AID1671195 (Yale University, 2021).

- Assay: 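Knockdowns that increase or decrease uptake of fluorescent LDL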 (primary screen)
- System: human Huh7 hepatoma cells
- Reagents: siRNA pool against human genes, 18 nM
- Timing: about 2 to 2.5 days of knockdown, then 8 h LDL uptake
- Challenge: DiI-labelled LDL at 30 µg/ml for 8 h, in lipoprotein-deficient serum medium
- Measured: 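Fluorescent LDL signal imaged in cells, scaled to the plate median, robust z-score for each replicate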
- Scale: robust z-score: higher = more LDL uptake after knockdown
- Hit rule: 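Active when two or more replicates show a robust z-score above 2 or below -2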
In all, the deposit lists about 22,000 reagents; below is a random part of them. About 1,510 of them (6.9%) were called active. 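Active includes knockdowns raising or lowering LDL uptake; positive z-scores mean more uptake, negative mean less.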 The numbers tell different reagents against one gene apart.

Knock-down of LINC01931 gave: robust z-score, replicate 1 = -0.901; robust z-score, replicate 2 = -0.914; robust z-score, replicate 3 = -0.874; inactive.
For PBDC1, the values are robust z-score, replicate 1 = 1.66; robust z-score, replicate 2 = 1.42; robust z-score, replicate 3 = 1.32; inactive.
Against TMEM184B the deposit lists robust z-score, replicate 1 = 0.856; robust z-score, replicate 2 = 1.7; robust z-score, replicate 3 = -0.165; inactive.
FTL gave robust z-score, replicate 1 = 1.96; robust z-score, replicate 2 = 0.412; robust z-score, replicate 3 = 1.08; inactive.
For DNMT3A the deposit lists robust z-score, replicate 1 = 0.643; robust z-score, replicate 2 = 0.0263; robust z-score, replicate 3 = -0.0592; inactive.
For LOC347381, the values are robust z-score, replicate 1 = 3.22; robust z-score, replicate 2 = 2.86; robust z-score, replicate 3 = 2.3; active.
LOC440380 (retired record) scored robust z-score, replicate 1 = -1.29; robust z-score, replicate 2 = -1.33; robust z-score, replicate 3 = -1.48; inactive.
Knock-down of NFATC4 resulted in: robust z-score, replicate 1 = 0.76; robust z-score, replicate 2 = 1.19; robust z-score, replicate 3 = 0.518; inactive.

3 entries already listed, sorted by “robust z-score, replicate 1”, highest first:
LOC347381: robust z-score, replicate 1 = 3.22; robust z-score, replicate 2 = 2.86; robust z-score, replicate 3 = 2.3; outcome = active
NFATC4: robust z-score, replicate 1 = 0.76; robust z-score, replicate 2 = 1.19; robust z-score, replicate 3 = 0.518; outcome = inactive
LOC440380 (retired record): robust z-score, replicate 1 = -1.29; robust z-score, replicate 2 = -1.33; robust z-score, replicate 3 = -1.48; outcome = inactive

The listing continues.
With knock-down of CES4A, the record shows robust z-score, replicate 1 = -1.05; robust z-score, replicate 2 = -1.07; robust z-score, replicate 3 = -0.966; inactive.
With knock-down of LOC442329 (retired record), the screen gave robust z-score, replicate 1 = -2.56; robust z-score, replicate 2 = -1.99; robust z-score, replicate 3 = -1.83; active.
After knock-down of HK2, the record shows robust z-score, replicate 1 = -0.942; robust z-score, replicate 2 = -0.467; robust z-score, replicate 3 = -1.13; inactive.
LOC441078 (retired record) showed robust z-score, replicate 1 = 0.0254; robust z-score, replicate 2 = -0.0459; robust z-score, replicate 3 = -0.198; inactive.
With knock-down of CFAP46 #1, the screen gave robust z-score, replicate 1 = 0.542; robust z-score, replicate 2 = 1.41; robust z-score, replicate 3 = 1.19; inactive.
Against CFAP46 #2 the deposit lists robust z-score, replicate 1 = 0.212; robust z-score, replicate 2 = -0.0862; robust z-score, replicate 3 = 0.267; inactive.
Knock-down of CFAP46 #3 came out at: robust z-score, replicate 1 = -0.649; robust z-score, replicate 2 = 0.33; robust z-score, replicate 3 = -0.24; inactive.
With knock-down of CFAP46 #4, the record shows robust z-score, replicate 1 = -0.558; robust z-score, replicate 2 = 0.000201; robust z-score, replicate 3 = -0.595; inactive.
For ADGRE1 the deposit lists robust z-score, replicate 1 = 0.738; robust z-score, replicate 2 = -0.322; robust z-score, replicate 3 = 0.16; inactive.
Against HSPB3 the deposit lists robust z-score, replicate 1 = 0.332; robust z-score, replicate 2 = 1.65; robust z-score, replicate 3 = 1.11; inactive.
After knock-down of ZCCHC13, the screen gave robust z-score, replicate 1 = -0.599; robust z-score, replicate 2 = -0.605; robust z-score, replicate 3 = -0.33; inactive.
With knock-down of SERPINA2, the screen gave robust z-score, replicate 1 = -0.176; robust z-score, replicate 2 = 0.0698; robust z-score, replicate 3 = 0.0857; inactive.
Against MARVELD1, the values are robust z-score, replicate 1 = -0.418; robust z-score, replicate 2 = -0.465; robust z-score, replicate 3 = -0.439; inactive.
Against SSU72 the deposit lists robust z-score, replicate 1 = -0.0992; robust z-score, replicate 2 = -1.1; robust z-score, replicate 3 = -1.29; inactive.
OR4C45 scored robust z-score, replicate 1 = -0.235; robust z-score, replicate 2 = 0.409; robust z-score, replicate 3 = 0.799; inactive.
Knock-down of CLVS2 gave: robust z-score, replicate 1 = 0.621; robust z-score, replicate 2 = 1.95; robust z-score, replicate 3 = 1.5; inactive.
